PubChem BioAssay AID1259323 – Peter MacCallum Cancer Centre | 2017

Screen: 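Kinases required for PAR2 signalling to open the TRPV4 channel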 (primary screen)
Cell system: human HEK293 cells stably carrying inducible TRPV4
Reagent: siRNA pool against human genes
Treatment: PAR2 activation; agonist identity and dose not given
Measurement: 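Signal of a calcium dye in live cells following PAR2 activation, plateau and early peak normalised to mock transfection on each plate, mean of duplicate plates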
Reading the numbers: TRPV4 plateau calcium, % of mock: higher = stronger sustained TRPV4 calcium entry than mock; PAR2 peak calcium, % of mock: higher = stronger early PAR2 calcium response than mock
Hit rule: 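Active when sustained TRPV4 plateau calcium falls below 90% of mock while the early PAR2 peak remains above 79% of mock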
Shown is a random part of 715 reagents tested. 91 of all reagents (13%) count as active. 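Active pools lower the sustained TRPV4 phase but spare the early PAR2 peak; PAR2 agonist and dose are not stated; pools repeat across wells.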 A number with no mark means an inactive call. Not given: the amount of reagent, the time to read-out.

Gene	PubChem SID	TRPV4 plateau calcium, % of mock	PAR2 peak calcium, % of mock
CDK5	SID336297378	101	94.8
PRKD3	SID336297096	102	98.3
GSK3A	SID336297228	91	93.4
PDK1	SID336297603	98.2	102
PHKG1	SID336297391	97.3	91.6
CAMKK2	SID336297185	101	102
HASPIN	SID336297366	108	103
MERTK	SID336297437	91.9	101
MAP4K1	SID336297745	104	103
PTK7	SID336297431	111	105
RET	SID336297527	99.1	101
PIP4K2B	SID336297583	100	101
PFKFB1	SID336297686	107	105
PIK3R4	SID336297522	88.1 (active)	91.9
PRKG1	SID336297168	108	107
MPP1	SID336297254	100	93.9
CDKN1C	SID336297587	93.2	98.6
AGK	SID336297111	108	97.9
TGFBR3	SID336297693	89.9 (active)	98.2
CSK	SID336297403	97.1	95.4
FN3K	SID336297083	95.3	92
EPHB6	SID336297319	101	99.5
PINK1	SID336297322	101	97.8
HUS1	SID336297655	95.9	99.3
CDKN1A	SID336297497	86.6 (active)	88.8
MAP2K2	SID336297620	107	104
CAMK2B	SID336297058	112	104
TPD52L3	SID336297287	95.8	96.2
MAP2K7	SID336297318	99.5	96.3
STK10	SID336297275	87.9 (active)	89.4
MAPK12	SID336297678	87.7 (active)	94.3
MAP4K2	SID336297602	107	103
ATM	SID336297109	93	104
ITPKA	SID336297216	102	99.9
CSNK1E	SID336297229	87.8 (active)	92.3

Active calls, of those listed so far:
Gene	PubChem SID	TRPV4 plateau calcium, % of mock	PAR2 peak calcium, % of mock
PIK3R4	SID336297522	88.1 (active)	91.9
TGFBR3	SID336297693	89.9 (active)	98.2
CDKN1A	SID336297497	86.6 (active)	88.8
STK10	SID336297275	87.9 (active)	89.4
MAPK12	SID336297678	87.7 (active)	94.3
CSNK1E	SID336297229	87.8 (active)	92.3

Next results follow.
Gene	PubChem SID	TRPV4 plateau calcium, % of mock	PAR2 peak calcium, % of mock
PIP4K2A	SID336297250	95.5	90.8
MAST2	SID336297507	96.5	87.6
PANK4	SID336297681	103	98.7
CSNK2A1	SID336297600	101	97.6
MUSK	SID336297323	102	102
SRMS	SID336297601	82.4 (active)	92
BRD4	SID336297502	99.7	96.9
ADCK2	SID336297407	103	104
TAOK2	SID336297087	98.8	92.8
PLK1	SID336297073	75.9	67.9
PRKAR2B	SID336297642	104	97.6
BMX	SID336297699	103	103
BUB1	SID336297221	84.1	78.8
GRK6	SID336297112	106	89
IRAK2	SID336297305	118	106
PIK3C3	SID336297738	85.8 (active)	96.8
DAPK3	SID336297425	110	109
CSNK1A1	SID336297703	89.9 (active)	90.4
CAMK2D	SID336297106	98.6	98.7
DGKG	SID336297212	97.9	97.6
TTBK1	SID336297097	109	102
KCNH2	SID336297547	90.3	94.5
NTRK1	SID336297651	93.2	95.7
PRP4K	SID336297628	99.3	98.4
DLG4	SID336297225	94.6	90.2
PRKAR1B	SID336297375	104	105
STK39	SID336297360	85.8 (active)	89.2
PRKCZ	SID336297334	96.5	101
STK32A	SID336297725	104	102
NME5	SID336297152	96.7	93
CSNK1D	SID336297413	90.3	89
CDKL2	SID336297615	115	105
ALPK3	SID336297115	112	103
IP6K3	SID336297698	90.7	102
RNASEL	SID336297116	113	105
MAP4K5	SID336297107	106	104
PDPK1	SID336297662	98.8	98.4
TK2	SID336297599	101	98.2
BRD2	SID336297298	105	100
PHKA2	SID336297110	96.9	92.1
NRBP2	SID336297446	116	115
CHKB	SID336297641	103	103
KHK	SID336297623	103	101
TWF2	SID336297723	86.3 (active)	87.3
RPS6KA3	SID336297259	88.2 (active)	89.7
FN3KRP	SID336297279	104	98.5
PI4KB	SID336297224	97.9	90.2
NUAK2	SID336297563	98.9	97.7
SLK	SID336297586	94.7	92.4
MAP3K8	SID336297262	97.4	95
PACSIN1	SID336297424	115	106
WEE1	SID336297509	92.1	83.3
BMP2K	SID336297197	95.3	94
EFNA3	SID336297214	93.8	93.9
PFKFB4	SID336297575	108	104
TRIB2	SID336297543	111	104
PHKG2	SID336297103	120	104
IP6K2	SID336297609	88.8 (active)	95.9
BRSK2	SID336297518	87.8 (active)	90.9
CDK19	SID336297562	96.7	93.8
EIF2AK2	SID336297568	94.3	96
EIF2AK3	SID336297737	94.5	94.3
SRC	SID336297153	114	107
FXN	SID336297504	106	101
FGFR4	SID336297592	81.9 (active)	93.9
RPS6KA2	SID336297492	103	100
TAF1L	SID336297272	85.1 (active)	87.9
TRPM6	SID336297147	96.5	96.8
MAPK6	SID336297493	107	98.3
TLK1	SID336297656	108	99.2
RPS6KA6	SID336297433	105	109
HIPK2	SID336297411	98.2	97.2
